According to the supplement of paper PMC12067093, “Discovery and optimisation of a covalent ligand for TRIM25 and its application to targeted protein ubiquitination” (Chemical Science, 2025):
The other results are listed elsewhere or left out.

Sequences of proteins named here, by UniProt entry; tags and fusion partners are left off. A change or cut given only in a name is not applied to a line headed by its entry.
UniProt Q9UQE7: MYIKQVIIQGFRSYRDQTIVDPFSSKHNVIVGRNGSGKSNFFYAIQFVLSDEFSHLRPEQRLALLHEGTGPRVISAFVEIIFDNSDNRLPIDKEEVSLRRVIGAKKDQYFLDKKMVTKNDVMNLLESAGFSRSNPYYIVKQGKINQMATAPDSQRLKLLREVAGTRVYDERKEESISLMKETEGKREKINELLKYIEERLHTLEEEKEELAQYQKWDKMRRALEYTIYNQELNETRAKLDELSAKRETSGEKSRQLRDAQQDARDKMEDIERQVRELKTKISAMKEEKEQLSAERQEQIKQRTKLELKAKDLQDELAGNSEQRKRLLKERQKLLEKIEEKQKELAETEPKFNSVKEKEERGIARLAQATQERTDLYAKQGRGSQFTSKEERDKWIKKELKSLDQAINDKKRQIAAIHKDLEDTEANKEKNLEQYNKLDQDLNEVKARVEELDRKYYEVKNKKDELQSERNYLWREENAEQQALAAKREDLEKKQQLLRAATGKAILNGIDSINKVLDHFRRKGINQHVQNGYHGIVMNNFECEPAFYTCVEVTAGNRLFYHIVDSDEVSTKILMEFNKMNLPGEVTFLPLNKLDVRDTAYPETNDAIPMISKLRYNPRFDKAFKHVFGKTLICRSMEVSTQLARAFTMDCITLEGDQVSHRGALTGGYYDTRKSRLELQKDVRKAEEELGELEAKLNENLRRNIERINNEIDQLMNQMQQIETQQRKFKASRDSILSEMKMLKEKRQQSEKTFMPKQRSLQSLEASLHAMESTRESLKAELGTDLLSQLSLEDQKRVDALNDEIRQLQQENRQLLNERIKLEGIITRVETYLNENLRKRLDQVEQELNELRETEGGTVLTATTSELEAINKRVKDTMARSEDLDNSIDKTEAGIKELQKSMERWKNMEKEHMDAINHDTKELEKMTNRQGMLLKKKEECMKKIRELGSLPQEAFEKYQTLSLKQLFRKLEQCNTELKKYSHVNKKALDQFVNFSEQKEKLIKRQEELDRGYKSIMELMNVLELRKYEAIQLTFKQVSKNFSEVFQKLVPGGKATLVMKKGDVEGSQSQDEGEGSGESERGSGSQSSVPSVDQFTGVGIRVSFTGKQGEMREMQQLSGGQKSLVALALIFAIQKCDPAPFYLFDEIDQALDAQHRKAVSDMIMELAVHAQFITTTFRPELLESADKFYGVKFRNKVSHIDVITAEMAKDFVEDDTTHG
UniProt Q9Y289: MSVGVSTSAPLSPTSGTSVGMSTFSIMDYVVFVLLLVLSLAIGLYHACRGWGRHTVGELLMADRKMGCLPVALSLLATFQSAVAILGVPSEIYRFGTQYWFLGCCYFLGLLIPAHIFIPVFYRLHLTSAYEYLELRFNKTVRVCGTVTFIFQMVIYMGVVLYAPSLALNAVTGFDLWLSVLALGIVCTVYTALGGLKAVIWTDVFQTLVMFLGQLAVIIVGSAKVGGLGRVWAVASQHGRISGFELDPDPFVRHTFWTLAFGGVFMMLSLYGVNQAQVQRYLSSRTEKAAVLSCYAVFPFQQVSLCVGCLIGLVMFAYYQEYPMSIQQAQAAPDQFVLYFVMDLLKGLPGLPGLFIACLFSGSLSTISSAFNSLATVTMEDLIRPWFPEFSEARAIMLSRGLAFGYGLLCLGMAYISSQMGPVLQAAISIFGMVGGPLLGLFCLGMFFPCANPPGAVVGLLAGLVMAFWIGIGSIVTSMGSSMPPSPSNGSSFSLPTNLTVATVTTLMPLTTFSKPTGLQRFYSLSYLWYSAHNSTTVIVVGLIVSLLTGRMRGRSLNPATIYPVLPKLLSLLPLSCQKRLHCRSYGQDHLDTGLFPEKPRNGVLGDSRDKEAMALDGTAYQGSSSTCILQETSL
UniProt O75643, whole entry, looked up: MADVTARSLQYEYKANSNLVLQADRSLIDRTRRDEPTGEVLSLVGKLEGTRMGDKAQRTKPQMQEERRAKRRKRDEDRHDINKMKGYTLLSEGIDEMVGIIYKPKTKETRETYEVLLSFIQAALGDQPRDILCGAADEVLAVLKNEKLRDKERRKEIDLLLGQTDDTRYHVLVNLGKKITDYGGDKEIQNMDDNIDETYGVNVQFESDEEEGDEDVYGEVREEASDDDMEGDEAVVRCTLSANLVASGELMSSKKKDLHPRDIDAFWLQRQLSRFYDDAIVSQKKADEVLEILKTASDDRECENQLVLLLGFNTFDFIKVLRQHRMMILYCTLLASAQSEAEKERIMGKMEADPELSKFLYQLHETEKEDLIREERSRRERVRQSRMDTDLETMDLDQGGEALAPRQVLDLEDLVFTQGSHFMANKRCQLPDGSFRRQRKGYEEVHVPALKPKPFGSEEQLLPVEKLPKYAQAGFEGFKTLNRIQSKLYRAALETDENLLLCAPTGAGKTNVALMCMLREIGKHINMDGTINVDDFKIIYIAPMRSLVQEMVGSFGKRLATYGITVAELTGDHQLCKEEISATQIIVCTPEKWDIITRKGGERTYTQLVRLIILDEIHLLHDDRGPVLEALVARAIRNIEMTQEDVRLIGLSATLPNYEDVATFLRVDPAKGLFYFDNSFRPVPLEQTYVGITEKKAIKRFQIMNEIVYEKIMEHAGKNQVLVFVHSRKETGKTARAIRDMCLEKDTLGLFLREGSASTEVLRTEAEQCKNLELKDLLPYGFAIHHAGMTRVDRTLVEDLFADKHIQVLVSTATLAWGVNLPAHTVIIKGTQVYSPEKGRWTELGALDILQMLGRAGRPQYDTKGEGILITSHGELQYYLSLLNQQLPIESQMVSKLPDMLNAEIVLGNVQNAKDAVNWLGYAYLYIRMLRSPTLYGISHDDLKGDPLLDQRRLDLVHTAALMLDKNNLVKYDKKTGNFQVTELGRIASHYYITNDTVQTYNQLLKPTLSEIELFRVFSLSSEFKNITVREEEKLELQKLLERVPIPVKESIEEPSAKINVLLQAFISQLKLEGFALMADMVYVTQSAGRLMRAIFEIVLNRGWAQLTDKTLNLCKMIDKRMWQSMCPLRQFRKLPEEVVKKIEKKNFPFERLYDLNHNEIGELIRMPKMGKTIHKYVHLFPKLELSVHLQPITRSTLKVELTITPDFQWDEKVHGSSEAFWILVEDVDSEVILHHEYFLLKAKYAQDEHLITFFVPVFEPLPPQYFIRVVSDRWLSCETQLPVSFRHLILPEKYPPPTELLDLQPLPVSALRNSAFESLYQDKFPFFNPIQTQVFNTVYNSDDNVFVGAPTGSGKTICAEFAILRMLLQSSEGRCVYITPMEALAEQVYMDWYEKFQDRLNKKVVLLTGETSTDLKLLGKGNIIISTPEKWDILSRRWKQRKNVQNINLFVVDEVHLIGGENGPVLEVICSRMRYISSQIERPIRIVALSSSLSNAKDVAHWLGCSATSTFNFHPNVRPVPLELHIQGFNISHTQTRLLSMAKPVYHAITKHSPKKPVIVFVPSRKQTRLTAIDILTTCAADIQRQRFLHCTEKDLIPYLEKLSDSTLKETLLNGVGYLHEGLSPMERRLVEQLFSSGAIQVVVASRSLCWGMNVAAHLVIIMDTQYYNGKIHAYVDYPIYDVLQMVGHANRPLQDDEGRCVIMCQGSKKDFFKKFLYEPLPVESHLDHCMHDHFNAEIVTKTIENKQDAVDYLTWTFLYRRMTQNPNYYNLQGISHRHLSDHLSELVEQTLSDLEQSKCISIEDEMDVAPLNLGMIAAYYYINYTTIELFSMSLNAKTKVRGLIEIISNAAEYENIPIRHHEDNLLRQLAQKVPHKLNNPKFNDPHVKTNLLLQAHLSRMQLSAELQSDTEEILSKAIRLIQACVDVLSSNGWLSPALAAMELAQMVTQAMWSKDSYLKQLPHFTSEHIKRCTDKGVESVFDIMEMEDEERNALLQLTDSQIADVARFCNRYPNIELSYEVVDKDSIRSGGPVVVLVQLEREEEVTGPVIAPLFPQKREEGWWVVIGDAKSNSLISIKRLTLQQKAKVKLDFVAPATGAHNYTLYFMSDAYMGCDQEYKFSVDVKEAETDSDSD
UniProt Q9NTJ3, whole entry, looked up: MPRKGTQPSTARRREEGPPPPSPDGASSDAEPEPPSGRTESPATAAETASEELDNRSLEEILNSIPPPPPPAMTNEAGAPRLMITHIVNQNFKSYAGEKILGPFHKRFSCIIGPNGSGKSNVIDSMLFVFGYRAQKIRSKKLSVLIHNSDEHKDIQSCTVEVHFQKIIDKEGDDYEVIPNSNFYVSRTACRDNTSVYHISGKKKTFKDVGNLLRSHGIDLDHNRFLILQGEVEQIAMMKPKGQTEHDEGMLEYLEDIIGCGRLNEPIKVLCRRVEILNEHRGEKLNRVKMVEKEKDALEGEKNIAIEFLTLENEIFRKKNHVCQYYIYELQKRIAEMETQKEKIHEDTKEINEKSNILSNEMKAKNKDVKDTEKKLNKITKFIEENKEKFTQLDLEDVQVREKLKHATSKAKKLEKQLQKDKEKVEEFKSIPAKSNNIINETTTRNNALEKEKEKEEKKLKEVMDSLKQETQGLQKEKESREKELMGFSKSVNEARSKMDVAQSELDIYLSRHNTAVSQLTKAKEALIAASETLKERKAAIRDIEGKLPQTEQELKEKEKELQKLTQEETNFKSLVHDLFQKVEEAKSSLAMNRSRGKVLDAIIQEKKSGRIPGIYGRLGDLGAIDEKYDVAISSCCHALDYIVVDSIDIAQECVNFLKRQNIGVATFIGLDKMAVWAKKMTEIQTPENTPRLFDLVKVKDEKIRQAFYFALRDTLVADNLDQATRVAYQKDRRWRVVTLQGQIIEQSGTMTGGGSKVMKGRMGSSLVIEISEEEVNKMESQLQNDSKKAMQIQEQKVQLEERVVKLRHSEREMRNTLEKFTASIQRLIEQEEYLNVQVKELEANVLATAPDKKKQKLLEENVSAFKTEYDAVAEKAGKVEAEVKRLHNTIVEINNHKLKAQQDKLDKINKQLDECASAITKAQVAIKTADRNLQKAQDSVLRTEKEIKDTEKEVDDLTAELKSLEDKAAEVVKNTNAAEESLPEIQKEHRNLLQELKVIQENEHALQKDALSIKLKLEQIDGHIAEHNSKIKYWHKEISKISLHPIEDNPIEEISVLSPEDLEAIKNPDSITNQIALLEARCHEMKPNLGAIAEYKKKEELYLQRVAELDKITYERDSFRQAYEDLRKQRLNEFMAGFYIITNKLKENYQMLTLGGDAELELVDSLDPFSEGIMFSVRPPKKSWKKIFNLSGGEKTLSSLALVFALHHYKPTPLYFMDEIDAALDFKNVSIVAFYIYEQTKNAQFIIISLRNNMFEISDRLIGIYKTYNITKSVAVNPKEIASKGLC
UniProt O95347, whole entry, looked up: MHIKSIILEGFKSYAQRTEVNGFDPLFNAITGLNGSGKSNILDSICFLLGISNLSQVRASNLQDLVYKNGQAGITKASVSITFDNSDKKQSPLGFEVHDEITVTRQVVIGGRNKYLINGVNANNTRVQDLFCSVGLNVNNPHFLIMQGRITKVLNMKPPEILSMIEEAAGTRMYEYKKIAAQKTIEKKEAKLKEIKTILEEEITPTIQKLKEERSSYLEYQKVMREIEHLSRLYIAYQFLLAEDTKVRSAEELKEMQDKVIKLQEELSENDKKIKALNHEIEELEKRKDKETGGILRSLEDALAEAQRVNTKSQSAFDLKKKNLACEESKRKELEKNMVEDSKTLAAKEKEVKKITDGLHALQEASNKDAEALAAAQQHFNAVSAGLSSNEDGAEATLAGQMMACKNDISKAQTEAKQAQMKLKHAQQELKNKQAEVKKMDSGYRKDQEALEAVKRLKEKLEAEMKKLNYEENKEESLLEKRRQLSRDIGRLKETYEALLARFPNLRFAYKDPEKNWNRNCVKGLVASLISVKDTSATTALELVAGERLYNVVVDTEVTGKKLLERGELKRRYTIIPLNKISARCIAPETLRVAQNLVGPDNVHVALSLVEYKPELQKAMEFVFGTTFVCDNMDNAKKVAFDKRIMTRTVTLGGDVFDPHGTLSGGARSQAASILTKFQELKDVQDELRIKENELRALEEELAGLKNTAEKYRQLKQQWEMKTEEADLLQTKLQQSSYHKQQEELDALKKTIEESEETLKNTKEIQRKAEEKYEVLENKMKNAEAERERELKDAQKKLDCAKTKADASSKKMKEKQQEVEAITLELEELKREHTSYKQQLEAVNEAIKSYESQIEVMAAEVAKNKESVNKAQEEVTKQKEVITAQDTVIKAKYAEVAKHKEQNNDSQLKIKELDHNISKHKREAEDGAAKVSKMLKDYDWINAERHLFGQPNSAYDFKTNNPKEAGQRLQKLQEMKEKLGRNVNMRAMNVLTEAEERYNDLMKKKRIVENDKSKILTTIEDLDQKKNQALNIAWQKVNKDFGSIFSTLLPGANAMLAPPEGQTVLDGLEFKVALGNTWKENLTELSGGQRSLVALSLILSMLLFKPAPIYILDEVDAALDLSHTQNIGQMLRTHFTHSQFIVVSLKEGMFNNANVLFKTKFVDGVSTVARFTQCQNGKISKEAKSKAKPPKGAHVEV

Compound: Cc1cc(ccc1-c1ccccc1)C(=O)N1CCCN(CC1)C(=O)CCl [compound 10]
Test: probe-labelled cysteine peptide fold change vs DMSO (competition) (log2 fold change); higher = less target engagement (more negative = stronger competition)
Details: THP-1, incubation time: 4 h
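Further: competitive profiling in live THP-1 cells: cysteine peptides tagged with an iodoacetamide desthiobiotin (IA-DTB) probe, intensity after compound treatment relative to DMSO-treated cells.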

Row | Target | probe-labelled cysteine peptide fold change (10 µM) | probe-labelled cysteine peptide fold change (50 µM)
1 | SMC1A_Q14683_619_ALQYACGNALVCDNVEDAR (UniProt Q14683) | 0.262 | -0.0931
2 | SMARCC2_Q8TAQ2_635_TQDECILHFLR (UniProt Q8TAQ2) | 0.0634 | 0.139
3 | SND1_Q7KZF4_826+837_DIQNTQCLLNVEHLSAGCPHVTLQFADSKGDVGLGLVK (UniProt Q7KZF4) | -0.0831 | -0.937
4 | SMS_P52788_229_MVTMVEIDQMVIDGCKK (UniProt P52788) | -0.0388 | -0.348
5 | SMC3_Q9UQE7_1134_CDPAPFYLFDEIDQALDAQHRK (UniProt Q9UQE7) | 0.188 | 0.33
6 | SLC5A6_Q9Y289_577_LLSLLPLSCQK (UniProt Q9Y289) | -0.114 | -0.245
7 | SMARCAD1_Q9H4L7_772_NTEMCNVMMQLR (UniProt Q9H4L7) | -0.283 | -0.983
8 | SMYD3_Q9H7B4_263_DQYCFECDCFR (UniProt Q9H7B4) | -0.041 | -0.0538
9 | SNRNP200_O75643_576_RLATYGITVAELTGDHQLCK (UniProt O75643) | -0.0412 | 0.0936
10 | SLC9A1_P19634_794_CLSDPGPHPEPGEGEPFFPK (UniProt P19634) | -0.234 | -0.0551
11 | SMCHD1_A6NHR9_492_LIPYTSVEDFDWCTPPK (UniProt A6NHR9) | -0.286 | 0.017
12 | SMPD4_Q9NXE4_221_TSDCAYFILVDR (UniProt Q9NXE4) | 0.216 | 0.17
13 | SLC43A3_Q8NBI5_226_GHIPYPLPPNYSYGLCPGNGTTK (UniProt Q8NBI5) | -0.217 | -0.0751
14 | SNAPC1_Q16533_11_GTPPGLQTDCEALLSR (UniProt Q16533) | 0.651 | 0.347
15 | SMAP2_Q8WU79_80_SVNLDQWTQEQIQCMQEMGNGK (UniProt Q8WU79) | -0.0858 | -0.00988
16 | SMCHD1_A6NHR9_1967_CNDSLR (UniProt A6NHR9) | -0.215 | -0.299
17 | SNRNP200_O75643_1506_DVAHWLGCSATSTFNFHPNVR (UniProt O75643) | 0.125 | 0.238
18 | SMARCD2_Q92925_298_CTLLLMLDHQPPQYK (UniProt Q92925) | 0.0597 | 0.105
19 | SMARCA4_P51532_423_QEVVVCMR (UniProt P51532) | -0.0988 | -0.0647

Row | Target | probe-labelled cysteine peptide fold change (10 µM) | probe-labelled cysteine peptide fold change (50 µM)
20 | SND1_Q7KZF4_837_DIQNTQCLLNVEHLSAGCPHVTLQFADSKGDVGLGLVK (UniProt Q7KZF4) | 0.0091 | -0.728
21 | SMC3_Q9UQE7_1134_CDPAPFYLFDEIDQALDAQHR (UniProt Q9UQE7) | 0.416 | 0.52
22 | SMG9_Q9H0W8_380_EDFCPR (UniProt Q9H0W8) | -0.575 | -0.936
23 | SMCHD1_A6NHR9_1751_IAHLAQIEDDRAAMVISWHLASDMDCVVTLTTDAAR (UniProt A6NHR9) | 0.225 | 0.259
24 | SMC4_Q9NTJ3_158_DIQSCTVEVHFQK (UniProt Q9NTJ3) | 0.0884 | 0.197
25 | SMG1_Q96Q15_2738_LKQEAVTVPVCEDQLK (UniProt Q96Q15) | 0.0346 | -0.212
26 | SMC4_Q9NTJ3_323_KNHVCQYYIYELQK (UniProt Q9NTJ3) | -0.102 | -0.347
27 | SMC2_O95347_132_VQDLFCSVGLNVNNPHFLIMQGR (UniProt O95347) | 0.121 | 0.236
28 | SMCHD1_A6NHR9_970_LIVHCK (UniProt A6NHR9) | 0.145 | -0.0731
29 | SNRNP200_O75643_428_RCQLPDGSFR (UniProt O75643) | -0.17 | 0.174
30 | SLC9A3R2_Q15599_103_QLTCTEEMAQR (UniProt Q15599) | 0.222 | 0.0651
31 | SMURF2_Q9HAU4_627_ELELIICGLGK (UniProt Q9HAU4) | 0.0707 | 0.202
32 | SMARCA5_O60264_283_DVLLPGEWDVCVTSYEMLIK (UniProt O60264) | -0.039 | 0.0736
33 | SLK_Q9H2G2_86_VIDTKSEEELEDYMVEIDILASCDHPNIVK (UniProt Q9H2G2) | 0.0586 | -0.47
34 | SNRNP200_O75643_1706_CVIMCQGSK (UniProt O75643) | 0.0611 | -0.0986
35 | SMC2_O95347_630_AMEFVFGTTFVCDNMDNAK (UniProt O95347) | -0.169 | -0.0333
36 | SLK_Q9H2G2_86_SEEELEDYMVEIDILASCDHPNIVK (UniProt Q9H2G2) | 0.51 | 0.523
37 | SLFN11_Q7Z7L1_884_TADPAILPNVLICLASR (UniProt Q7Z7L1) | 0.0806 | -0.324
